In patent US20240238242A1, “EGCG buccal tablet and use thereof” (priority 2023, published 2024):
Some entries share one result that the patent states for a list of compounds.

Test system: Helicobacter pylori (Hp) strain B5-3
Experiment: In vitro bactericidal concentration (MBC) against Helicobacter pylori, broth dilution and plate counting
Details: shake flask culture, concentration of 200 μM

O=C(O[C@@H]1Cc2c(O)cc(O)cc2O[C@@H]1c1cc(O)c(O)c(O)c1)c1cc(O)c(O)c(O)c1 [EGCG, Epigallocatechin gallate]
Hp inactivated: more than 99.9%
